Values of other authors, collected in article PMC3004914, “Classification of Drugs Based on Properties of Sodium Channel Inhibition: A Comparative Automated Patch-Clamp Study” (PLoS ONE, 2010).
Like-named read-outs stand apart in the source and are kept apart here.

Conditions: human plasma, cited from earlier work

CCN(CC)CC(=O)Nc1c(C)cccc1C [LID, Lidocaine]
plasma conc. (as printed in each cell): 3.5 [44] µg/ml | plasma conc. (as printed in the µg/ml cell): 12.925 µM
